Results are given in words; binding and its absence hold for the method and conditions named. Binding seen in cells or lysates may run through a third protein. Some binding calls cover weakened binding; strength is not graded here. For some of these results: Where a sequence is shown, tags or fusion partners need not be part of it. Blank lines part the entries; values can stand above or below the substance they belong to.
Key:
[1] = target: T1, FLAG-tagged NAT10 (human) (UniProt Q9H0A0); assay: co-IP; HEK293T cells transfected for 48 h; lysis buffer 50 mM Tris-HCl pH 7.5, 150 mM NaCl, 1 mM EDTA, 1% Triton X-100, 1 mM PMSF; anti-FLAG affinity gel, 2 h at 4 °C; western blot; with and without RNase A treatment (Figure 1C)
T1 sequence: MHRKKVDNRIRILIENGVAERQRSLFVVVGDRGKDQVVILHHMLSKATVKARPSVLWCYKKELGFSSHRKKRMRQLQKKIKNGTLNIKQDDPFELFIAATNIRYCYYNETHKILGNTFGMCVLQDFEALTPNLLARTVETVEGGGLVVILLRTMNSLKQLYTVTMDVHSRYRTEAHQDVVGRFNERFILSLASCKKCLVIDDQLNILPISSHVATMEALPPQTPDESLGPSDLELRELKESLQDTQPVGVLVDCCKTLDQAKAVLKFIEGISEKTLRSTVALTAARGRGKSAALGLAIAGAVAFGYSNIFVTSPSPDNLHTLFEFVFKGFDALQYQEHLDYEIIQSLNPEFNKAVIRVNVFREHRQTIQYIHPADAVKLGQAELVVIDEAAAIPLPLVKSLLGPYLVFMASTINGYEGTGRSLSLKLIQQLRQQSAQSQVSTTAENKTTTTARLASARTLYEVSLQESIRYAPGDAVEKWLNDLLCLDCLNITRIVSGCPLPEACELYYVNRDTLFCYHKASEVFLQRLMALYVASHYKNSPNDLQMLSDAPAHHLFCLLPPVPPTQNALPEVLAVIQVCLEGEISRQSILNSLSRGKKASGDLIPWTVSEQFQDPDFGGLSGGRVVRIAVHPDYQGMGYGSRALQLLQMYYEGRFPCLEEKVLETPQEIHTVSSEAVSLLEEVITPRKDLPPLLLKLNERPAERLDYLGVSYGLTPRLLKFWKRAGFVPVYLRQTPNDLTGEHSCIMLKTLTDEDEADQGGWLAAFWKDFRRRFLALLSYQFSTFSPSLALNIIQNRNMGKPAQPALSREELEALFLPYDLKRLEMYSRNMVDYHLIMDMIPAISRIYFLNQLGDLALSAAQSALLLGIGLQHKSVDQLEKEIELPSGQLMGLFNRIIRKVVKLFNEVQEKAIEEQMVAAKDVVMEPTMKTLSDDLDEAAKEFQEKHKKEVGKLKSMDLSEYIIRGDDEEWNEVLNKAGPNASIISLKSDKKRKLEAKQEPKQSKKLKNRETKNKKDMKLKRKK

Protein sequences, listed by entry. Tags and fused reporters are not part of them. Lines headed by an entry give the natural chain unless they say otherwise; changes in a name come on top. Residues count along the entry.
UniProt Q921F2: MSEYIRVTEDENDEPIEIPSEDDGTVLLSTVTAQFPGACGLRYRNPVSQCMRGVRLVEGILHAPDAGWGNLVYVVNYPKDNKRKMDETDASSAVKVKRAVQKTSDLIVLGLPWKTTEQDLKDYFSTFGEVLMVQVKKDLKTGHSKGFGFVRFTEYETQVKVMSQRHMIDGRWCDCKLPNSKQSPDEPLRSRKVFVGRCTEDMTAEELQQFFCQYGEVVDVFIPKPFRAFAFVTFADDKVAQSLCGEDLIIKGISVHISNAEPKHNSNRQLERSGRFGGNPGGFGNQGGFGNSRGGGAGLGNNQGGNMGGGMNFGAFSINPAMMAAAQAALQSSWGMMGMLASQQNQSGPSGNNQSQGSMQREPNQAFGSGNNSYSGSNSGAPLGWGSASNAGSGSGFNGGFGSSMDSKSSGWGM
UniProt P60335: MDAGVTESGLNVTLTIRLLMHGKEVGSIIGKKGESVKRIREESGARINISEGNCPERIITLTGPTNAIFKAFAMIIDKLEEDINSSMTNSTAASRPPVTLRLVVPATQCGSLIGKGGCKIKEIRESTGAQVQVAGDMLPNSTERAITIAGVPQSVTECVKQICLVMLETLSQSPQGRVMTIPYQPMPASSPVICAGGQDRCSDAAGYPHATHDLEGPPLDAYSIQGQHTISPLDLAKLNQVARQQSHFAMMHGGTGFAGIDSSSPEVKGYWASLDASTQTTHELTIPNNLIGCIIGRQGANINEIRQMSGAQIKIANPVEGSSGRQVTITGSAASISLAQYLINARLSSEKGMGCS
UniProt Q15365: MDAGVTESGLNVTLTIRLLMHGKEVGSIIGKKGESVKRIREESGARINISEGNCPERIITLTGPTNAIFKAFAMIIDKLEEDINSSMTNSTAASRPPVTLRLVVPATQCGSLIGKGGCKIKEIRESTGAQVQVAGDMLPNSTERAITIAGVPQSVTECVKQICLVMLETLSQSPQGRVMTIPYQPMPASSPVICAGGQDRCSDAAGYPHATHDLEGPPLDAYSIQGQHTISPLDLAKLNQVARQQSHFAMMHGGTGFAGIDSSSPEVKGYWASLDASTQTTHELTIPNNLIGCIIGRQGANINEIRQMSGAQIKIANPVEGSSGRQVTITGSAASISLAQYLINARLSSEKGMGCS
UniProt Q61990: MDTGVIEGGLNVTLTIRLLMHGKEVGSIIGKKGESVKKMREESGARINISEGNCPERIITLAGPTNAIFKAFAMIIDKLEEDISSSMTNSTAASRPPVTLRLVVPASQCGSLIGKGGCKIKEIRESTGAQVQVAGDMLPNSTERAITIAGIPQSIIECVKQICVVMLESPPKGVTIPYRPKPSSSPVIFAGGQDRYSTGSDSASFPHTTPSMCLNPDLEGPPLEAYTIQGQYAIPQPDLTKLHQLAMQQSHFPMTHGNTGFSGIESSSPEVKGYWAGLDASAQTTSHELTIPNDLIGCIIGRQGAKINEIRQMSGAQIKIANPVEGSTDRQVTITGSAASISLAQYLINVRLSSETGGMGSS
UniProt Q15366, residues 13-365: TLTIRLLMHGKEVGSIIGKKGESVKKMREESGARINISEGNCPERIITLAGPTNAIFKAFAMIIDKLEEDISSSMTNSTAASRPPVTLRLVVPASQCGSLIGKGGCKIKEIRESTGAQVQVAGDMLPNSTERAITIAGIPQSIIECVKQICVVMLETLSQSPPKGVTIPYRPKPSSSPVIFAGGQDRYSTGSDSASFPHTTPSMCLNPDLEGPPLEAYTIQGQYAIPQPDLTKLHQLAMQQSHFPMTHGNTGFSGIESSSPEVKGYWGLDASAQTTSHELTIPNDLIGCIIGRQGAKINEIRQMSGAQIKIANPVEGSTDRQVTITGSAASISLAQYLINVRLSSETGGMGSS

[2] = target: TDP43 (endogenous, mouse testis) (mouse (endogenous in testis)) (UniProt Q921F2); assay: co-IP; endogenous IP from mouse testis lysate with anti-TDP43 antibody on Protein A Sepharose, 4 h at 4 °C; western blot
[3] = target: TDP43 (endogenous, HEK293T) (human (endogenous in HEK293T)) (UniProt Q13148); assay: co-IP; endogenous IP from HEK293T lysate with anti-TDP43 antibody on Protein A Sepharose, 4 h at 4 °C; rabbit isotype IgG as control; western blot
[4] = target: T2, NAT10 (endogenous, HEK293T) (human (endogenous in HEK293T)) (UniProt Q9H0A0); assay: co-IP; endogenous NAT10 precipitated with anti-NAT10 antibody in the RIP procedure from 293T cells of the siNC, siPCBP1/2 and siTDP43 groups; western blot of the precipitate
T2 sequence: T1 sequence

[5] = target: TDP43 (as used with the truncated PCBP1 constructs, Figure S2E) (human) (UniProt Q13148); assay: co-IP; N-terminally truncated PCBP1 constructs tested with TDP43 (Figure S2E); bait and tags not given

binding [1]: binds
Substance: HA-tagged TDP43 (from UniProt Q13148 1-414)

binding [2]: binds
Substance: PCBP1 (endogenous, mouse testis) (from UniProt P60335 1-356)

binding [1]: binds
Substance: PCBP1^1–96 (from UniProt Q15365 1-96) (domain or fragment)

binding [3]: binds
Substance: PCBP1 (endogenous, HEK293T) (from UniProt Q15365 1-356)

binding [2]: binds
Substance: PCBP2 (endogenous, mouse testis) (from UniProt Q61990 1-362)

binding [4]: binds
Substance: TDP43 (endogenous, HEK293T) (from UniProt Q13148 1-414)

binding [5]: binds
binding [1]: binds
Substance: PCBP1^13–356 (from UniProt Q15365 13-356) (domain or fragment)

binding [5]: binds
Substance: PCBP1^76–356 (from UniProt Q15365 76-356) (domain or fragment)

binding [1]: binds
Substance: PCBP2^13–365 (from UniProt Q15366 13-365) (domain or fragment)

Source: article PMC11653668
